Experimental data: paper PMC9064986
Results are given in words; binding and its absence hold for the method and conditions named.

Amino acid sequences for entries named in this document (tags omitted). Residues count along the entry.
UniProt P37023, residues 22-118: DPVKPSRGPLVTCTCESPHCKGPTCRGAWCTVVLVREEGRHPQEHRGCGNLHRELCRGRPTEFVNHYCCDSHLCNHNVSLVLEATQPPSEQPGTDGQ

Biological target: T1, BMPRII extracellular domain (ECD), wild type (human) (UniProt Q13873)
T1 sequence: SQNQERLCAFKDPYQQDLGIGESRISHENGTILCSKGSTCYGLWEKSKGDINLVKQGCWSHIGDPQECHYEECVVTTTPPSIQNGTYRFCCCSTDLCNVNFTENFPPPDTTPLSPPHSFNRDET
Test: crystal structure; ALK1:BMP10:BMPRII ternary complex, 3.60 Å, P21; ALK1 mixed with preformed BMP10:BMPRII at 1.2:1; both purified

Q: With “ALK1 extracellular domain (ECD) (from UniProt P37023 22-118) (domain or fragment)” as the substance, how does the binding read?
A: no binding
